Assay results as given in PubChem BioAssay AID720504 (National Center for Advancing Translational Sciences (NCATS), 2013).
About 10,000 (2.8%) of roughly 360,000 compounds were called active. Inconclusive results, whose numbers are uncertain, are shown with a selection of clear calls. Calls come from the whole dose curve; as a rule, active = well fitted inhibition curve with a large enough effect; inconclusive = small, poorly fitted or top-dose-only effect; inactive = flat fitted curve, though single readings scatter. A potency beside an inconclusive call is a rough fit, not a confirmed value.
% is set by controls: 0 for no effect and ±100 for the full control effect; potency is the fitted concentration of half-maximal effect.
Note: nearly all actives have a fitted effect of over 65% in size.
Throughout, for max response, negative = inhibition: series mostly up to about 57 µM.

Sequences of proteins named here, by UniProt entry; tags and fusion partners are left off.
UniProt P53350, whole entry, looked up: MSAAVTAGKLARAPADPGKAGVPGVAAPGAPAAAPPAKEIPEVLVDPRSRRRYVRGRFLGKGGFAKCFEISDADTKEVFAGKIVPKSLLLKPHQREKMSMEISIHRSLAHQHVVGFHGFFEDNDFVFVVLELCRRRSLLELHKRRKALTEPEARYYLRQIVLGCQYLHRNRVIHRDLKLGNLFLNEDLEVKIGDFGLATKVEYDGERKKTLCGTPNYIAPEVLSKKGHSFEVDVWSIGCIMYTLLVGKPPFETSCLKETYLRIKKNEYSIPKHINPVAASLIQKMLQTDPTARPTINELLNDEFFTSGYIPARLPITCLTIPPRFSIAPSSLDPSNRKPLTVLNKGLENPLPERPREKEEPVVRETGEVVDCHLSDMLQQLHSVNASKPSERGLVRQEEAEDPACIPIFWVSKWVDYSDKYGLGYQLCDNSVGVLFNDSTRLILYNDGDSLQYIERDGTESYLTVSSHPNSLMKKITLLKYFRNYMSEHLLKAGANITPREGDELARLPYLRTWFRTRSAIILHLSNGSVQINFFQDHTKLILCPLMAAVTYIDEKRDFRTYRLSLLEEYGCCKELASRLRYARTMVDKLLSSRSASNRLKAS

What follows are molecules tested against Serine/threonine-protein kinase PLK1 (Homo sapiens) (UniProt P53350) (assay: qHTS for Inhibitors of PLK1-PDB (polo-like kinase 1 - polo-box domain): Primary Screen). Settings: Plk1 PBD binding of FITC phosphopeptide, fluorescence polarization.
With `Cc1ccc(Oc2ccc3c(c2)C(=O)N(c2ccc(S(=O)(=O)Nc4nccs4)cc2)C3=O)cc1` the Potency was inconclusive: 23.8 µM [inhibitor, partial curve]. For `CCOc1ccc(-c2nnc(N(CC)C(=O)C3CCC3)s2)cc1`, the Potency was inconclusive: 23.8 µM [inhibitor, partial curve]. For `CSc1nc(-c2ccccc2)nc2c1COC(C)(C)C2`, the Potency was active: 29.9 µM. `Cc1ccc(NC(=O)C2(c3ccccc3)CCOCC2)cc1` was tested, and the Potency was active: 26.7 µM. `CCc1cc(=O)oc2c(CNCc3ccccc3F)c(O)c(Cl)cc12` was tested, and the Potency was active: 29.9 µM. For `COCc1ccc2oc(C(=O)O)cc2c1`, the Potency was active: 3.36 µM. `COc1ccc(CCN2Cc3c(cccc3[N+](=O)[O-])C2=O)cc1OC` was tested, and the Potency was inconclusive: 29.9 µM [inhibitor, partial curve]. In the case of `Cc1noc(NS(=O)(=O)c2ccc(NC(=O)CSc3nc4c(cc3C#N)CCCCC4)cc2)c1C`, the Potency is reported as inconclusive: 67 µM [inhibitor, partial curve]. `COc1cc(/C=C2/SC(=S)N(CCC(=O)Nc3ccc(C(=O)O)cc3)C2=O)cc(OC)c1OC` was tested, and the max response, negative = inhibition was inconclusive: -31.6% [inhibitor]. In the case of `COCCNC(=S)N/N=C(\C)c1ccc(Cl)c(Cl)c1Cl`, the max response, negative = inhibition is reported as inactive: -2.11%. In the case of `Cc1ccc(O)c(NC(=O)CCC2CCCCC2)c1`, the max response, negative = inhibition is reported as inactive: -0.214%. In the case of `CC(C)c1ccc(NC2CCCN(C(=O)CCc3cn[nH]c3)C2)cc1` (stereo not drawn), the max response, negative = inhibition is reported as inactive: 1.61%. For `COc1ccc(NS(=O)(=O)c2ccc3oc(SCc4ccc(F)cc4)nc3c2)cc1`, the Potency was inconclusive: 16.8 µM [inhibitor, partial curve]. In the case of `Cc1c(CCC(=O)O)c(=O)oc2cc3occ(-c4ccc(Cl)cc4)c3cc12`, the Potency is reported as inconclusive: 29.9 µM [inhibitor, single point]. With `O=C(CSc1ccsc1[N+](=O)[O-])NCc1ccco1` the Potency was inconclusive: 29.9 µM [inhibitor, partial curve]. With `CCCCn1c(NCc2ccccn2)nc2ccccc21` the max response, negative = inhibition was inactive: -4.53%. For `COc1ccc(Cl)cc1NC(=S)NCc1cccs1`, the Potency was inconclusive: 37.7 µM [inhibitor, single point]. For `Cc1nn(-c2ccccc2)c(C)c1NC(=O)COC(=O)c1ccccc1`, the max response, negative = inhibition was inactive: 2.87%. In the case of `CCOC(=O)N1CCN(CC(=O)NC(=O)Nc2ccc3c(c2)OCCO3)CC1`, the max response, negative = inhibition is reported as inactive: -0.848%. For `c1ccc(CSc2nnc(-c3ccco3)c(-c3ccco3)n2)cc1`, the Potency was active: 11.2 µM. With `CCCCCCCCCCCCCCCC[n+]1cccc2ccccc21` the Potency was inconclusive: 26.7 µM [inhibitor, single point]. In the case of `C[C@@H]1CCCCO[C@H](CN(C)S(=O)(=O)c2ccccc2)[C@@H](C)CN([C@H](C)CO)C(=O)c2cc(NC(=O)Cc3ccccc3)ccc2O1`, the max response, negative = inhibition is reported as inactive: -8.49%. For `C=CCOC(=O)C(=O)/C=C/c1csc2ccccc12`, the Potency was inconclusive: 29.9 µM [inhibitor, partial curve]. `O=C(/C=C/c1ccco1)Nc1ccccc1C(=O)O` was tested, and the Potency was inconclusive: 10.6 µM [inhibitor, partial curve]. For `CCCc1nc(SCC(=O)NNC(=O)c2ccc(OC)cc2)c2ccccc2n1`, the max response, negative = inhibition was inactive: 2.25%. `S=C(Nc1ccc(Oc2ccccc2)cc1)Nc1cccnc1` was tested, and the Potency was inconclusive: 29.9 µM [inhibitor, partial curve]. In the case of `Oc1cc(-c2ccccc2)c2ccccc2c1`, the max response, negative = inhibition is reported as inactive: -8.59%. With `C[N+]1(CCOc2ccc([N+](=O)[O-])cc2)CCOCC1` the max response, negative = inhibition was inconclusive: -31.6% [inhibitor]. With `CCc1cc2ccc(C)cc2nc1SCC(=O)Nc1cc(OC)c(OC)cc1C(=O)O` the Potency was inconclusive: 37.7 µM [inhibitor, single point]. For `Cc1ccc(N=Nc2c(C)[nH]n(C(N)=S)c2=O)cc1`, the max response, negative = inhibition was inconclusive: -32% [inhibitor]. In the case of `Cc1cc(NC(=O)CSC2=NS(=O)(=O)c3cc(Cl)ccc3N2)no1`, the max response, negative = inhibition is reported as inactive: -2.92%. With `O=C(CSc1ccccc1)N1CCN(S(=O)(=O)c2cccs2)CC1` the Potency was inconclusive: 15 µM [inhibitor, partial curve]. `CC(C)(C)NC(=O)C(c1ccc(C#N)cc1)n1c(=O)c(-c2ccco2)nc2ccccc21` (stereo not drawn) was tested, and the Potency was inconclusive: 33.6 µM [inhibitor, partial curve]. In the case of `COc1cccc(NC(=O)Cn2cnc3sc(C)c(S(=O)(=O)N4CCN(C)CC4)c3c2=O)c1`, the Potency is reported as active: 8.44 µM. In the case of `COc1ccc(C(=O)N2CCC3(CC2)NCCc2[nH]cnc23)cc1`, the max response, negative = inhibition is reported as inactive: -17.4%. In the case of `CCn1cc(S(=O)(=O)Nc2ccc3c(c2)OCCO3)cn1`, the Potency is reported as inconclusive: 37.7 µM [inhibitor, single point]. With `CC1CC(C)CN(C(=O)C2CCC(CNc3c(N4CCCCC4)c(=O)c3=O)CC2)C1` (stereo not drawn) the max response, negative = inhibition was inactive: -7.28%. `Cc1oc(-c2ccc(Cl)cc2)nc1CN1CCC(C(=O)N2CCN(Cc3ccccc3)CC2)CC1` was tested, and the max response, negative = inhibition was inactive: -0.568%. With `Fc1ccc(-c2nc(-c3cccs3)no2)cc1` the Potency was inconclusive: 26.7 µM [inhibitor, single point]. With `CCC(=NNc1ccc([N+](=O)[O-])cc1[N+](=O)[O-])c1ccccc1` the max response, negative = inhibition was inactive: -1.08%. With `CCOc1cc(C(=S)N2CCOCC2)ccc1OS(=O)(=O)c1ccc(OC)cc1` the Potency was inconclusive: 23.8 µM [inhibitor, single point]. With `Cc1cc(C)nc(SCC(=O)NN=C2CCCC2)n1` the Potency was active: 6.7 µM. In the case of `COc1ccc(NCc2n[nH]c(=O)c3ccccc23)cc1`, the max response, negative = inhibition is reported as inactive: -14.7%. With `Cc1ccc(SC(=O)c2c(C)noc2-c2cc(C)on2)cc1` the Potency was inconclusive: 23.8 µM [inhibitor, partial curve]. In the case of `CC1CCCN(C(=O)C2CC(=O)N(c3ccc(Cl)cc3)C2)C1` (stereo not drawn), the max response, negative = inhibition is reported as inactive: -12.2%. With `Cc1ccc(C(=O)Oc2ccc(C(=O)COC(=O)C3CC(=O)N(Cc4ccco4)C3)cc2)cc1` (stereo not drawn) the max response, negative = inhibition was inconclusive: -33.4% [inhibitor]. With `Cc1c(C(=O)NNS(=O)(=O)c2ccccc2Cl)sc(=S)n1C` the max response, negative = inhibition was inactive: -7.42%. With `Cn1cnnc1SCC(=O)c1ccc2c(c1)OCCO2` the Potency was inconclusive: 37.7 µM [inhibitor, single point]. For `NC(=S)n1[nH]c(-c2ccc([N+](=O)[O-])cc2)c(N=Nc2cccc(Cl)c2)c1=O`, the Potency was inconclusive: 23.8 µM [inhibitor, partial curve]. `Cc1cc(-c2ccccc2)c2c3c(cn2n1)c(=O)n(C)c(=O)n3C` was tested, and the Potency was inconclusive: 21.2 µM [inhibitor, partial curve]. With `COc1ccc(C(C[N+](=O)[O-])n2nc(C)cc2C)cc1` (stereo not drawn) the Potency was active: 26.7 µM. For `Cc1ccc(SCC(=O)O/N=C(\N)c2ccc([N+](=O)[O-])cc2)cc1`, the Potency was inconclusive: 15 µM [inhibitor, partial curve]. In the case of `COc1ccc(S(=O)(=O)NCc2ccncc2)cc1OC`, the max response, negative = inhibition is reported as inactive: -2.51%. For `CCC(=O)N(CCc1ccccc1)Cc1cc2cc(OC)ccc2[nH]c1=O`, the max response, negative = inhibition was inconclusive: -22.9% [inhibitor]. `COc1ccc(OC)c(-c2nc(C(=O)NCC3CCCO3)cc3c2[nH]c2ccccc23)c1` (stereo not drawn) was tested, and the max response, negative = inhibition was inactive: -10.7%. `COc1ccc(N(C)S(=O)(=O)c2cccc(C(=O)OCC(=O)Nc3cc(C)ccc3OC)c2)cc1` was tested, and the max response, negative = inhibition was inactive: -4.63%. With `Cc1ccc(-c2c(C)n([O-])c3c([n+]2=O)CCCC3)cc1` the Potency was inconclusive: 23.8 µM [inhibitor, single point]. In the case of `CCCc1cc(=O)n2[nH]c(-c3cccc(Br)c3)cc2n1`, the Potency is reported as inconclusive: 23.8 µM [inhibitor, partial curve]. In the case of `O=S(=O)(c1ccccc1)c1nc(Nc2ccccc2N2CCOCC2)sc1Cl`, the Potency is reported as inconclusive: 29.9 µM [inhibitor, single point]. In the case of `CN(C)c1ccc(NC(=O)COC(=O)c2cc(Cl)ccc2[N+](=O)[O-])cc1`, the max response, negative = inhibition is reported as inactive: -10.4%. For `COc1ccc(C(=O)Cn2cnc3ccccc3c2=O)cc1`, the Potency was inconclusive: 26.7 µM [inhibitor, single point]. For `CC(C)Oc1ccc(C(=O)N/N=C/c2ccc(-c3ccc(S(=O)(=O)Nc4ncccn4)cc3)o2)cc1`, the Potency was inconclusive: 29.9 µM [inhibitor, single point]. For `CCOc1cc(N2CCOCC2)c(OCC)cc1NC(=O)CSc1ncccn1`, the Potency was inconclusive: 21.2 µM [inhibitor, partial curve]. `O=C(CSc1ccc(-c2ccco2)nn1)Nc1cccc(F)c1` was tested, and the Potency was inconclusive: 11.9 µM [inhibitor, partial curve]. With `CC(=O)Nc1ccc(C2=NNC(=Nc3ccc(S(=O)(=O)N4CCOCC4)cc3)SC2)cc1` the Potency was inconclusive: 11.9 µM [inhibitor, partial curve, poor fit]. With `CC(Sc1ccccc1)C(=O)Nc1ccc(N2CCOCC2)cc1` (stereo not drawn) the Potency was inconclusive: 23.8 µM [inhibitor, partial curve]. `CCCc1cc(C(=O)NNC(=S)NCC2CCCO2)cs1` (stereo not drawn) was tested, and the max response, negative = inhibition was inactive: -6.35%. In the case of `O=C(O)CCc1ccc(-c2cccs2)n1-c1ccc(C(=O)O)cc1`, the Potency is reported as inconclusive: 26.7 µM [inhibitor, single point]. With `CCc1sc(C(=O)NCc2ccccc2)cc1C` the max response, negative = inhibition was inactive: -0.594%. For `O=C(O)CCCCCn1c(SCC(=O)c2ccc(O)c(O)c2)nc2ccsc2c1=O`, the max response, negative = inhibition was inactive: -4.21%. In the case of `CC(C)c1ccc(NC(=O)c2ccc(NS(C)(=O)=O)cc2)cc1`, the Potency is reported as inconclusive: 23.8 µM [inhibitor, single point]. For `OC(COCc1ccccc1)CN1CCCC1` (stereo not drawn), the max response, negative = inhibition was inactive: -5.67%. With `CC(C)CN(C(=O)COC(=O)CSc1ccc([N+](=O)[O-])cc1)C1CCS(=O)(=O)C1` (stereo not drawn) the Potency was active: 18.9 µM.
